## Screening data

Source: PubChem BioAssay AID1159506 (NCATS, 2015).

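Luminescence from an EWS-FLI1 target-promoter (NR0B1) reporter, set against a CMV-promoter reporter, two days after silencing single genes in TC32 Ewing sarcoma cells. Each siRNA was applied at 20 nM. A z-score of the log NR0B1-over-CMV signal, less the median of siRNAs with the same seed; more negative means a stronger specific loss of the NR0B1 reporter.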

The strongest results of the screen are mostly left out here. Sequences are the guide (antisense) strand, without overhang.

| strand | gene | seed-corrected z-score |
|---|---|---|
| `AUUGUCAAAGUAAACAACU` | PLXDC1 | -0.03261 |
| `UAAGAAUUCAGGACCCUCA` | RPL15P3 | -0.4668 |
| `UAGAGCAAGAAUAAAACUG` | SEMA4B | -0.03981 |
| `UUCUGUUCAUUAUCUGGUG` | C6orf58 | -0.2461 |
| `AAUUGAGUAAAGGUUCUGC` | ZNF678 | 0.1639 |
| `UCUUGUGAAAGCAUCUCGC` | KLHL15 | 0.7998 |
| `AAAUACUCAACUGAGGUUC` | RPE | -0.7247 |
| `UGAUGUCUCUGUAACCUCG` | PCSK2 | -0.2993 |
| `UAACCGCAAAAUUCGUACC` | AP1G1 | -0.6489 |
| `UGUACUAUCAAAGCUGACU` | GTF2IP3 | -0.05964 |
| `UUACUACCAUAAGAACUCC` | CMC1 | -0.3984 |
| `UUAAGAAUCAGAACAUAAG` | OR51L1 | -0.639 |
| `UACUGCGUCAGACCGAACG` | LRP5 | -0.5047 |
| `UUUGACACGUCAAUGGUGC` | POLD2 | -0.09847 |
| `UGUAGUACAUUGGUUUCCG` | FAM151A | -1.43 |
| `UGAUAUAAUGGUCAAGUUC` | PHKA2 | 0.1792 |
| `UCAAUGGAAACGAUGUGGU` | NAA38 | 0.1177 |
| `UCUGAUACCACCUGACAGC` | TMEM145 | 0.1884 |
| `UUUUGUGCAUCCAUUGAGG` | FBXL2 | 0.07844 |
| `UGUCUUGAAAGUUAGGCCG` | SDK2 | -0.4475 |
| `UAGCUUAUUCCAGUCAAUG` | RPS6KA1 | 0.8291 |
| `AAAGUCGUCGGAGAUGCGG` | CNFN | 0.02504 |
| `UUUCAUCCCAAUCUCACUG` | CD247 | -0.02661 |
| `AAUAAGCCCAGGUAUAGCU` | SYT8 | -0.3959 |
| `UUCUUAACGAUGGACAUUC` | CCK | 0.7371 |
| `UCCUUGUCCACUGGAUGCC` | SRRM3 | -0.8517 |
| `UCGGGAAACCUGUUUGUCC` | TIFA | -0.5877 |
| `UUUGCGUAGACAGUUUUGG` | GRK1 | -0.1715 |
| `UAAAACAUCGCUAUAAUCU` | LOC646268 | -0.3517 |
| `ACAGGGAUAAGCCUCUGCU` | RND2 | 0.3973 |
| `UCACGGUCUACCUUCACAC` | SPATA20 | -0.6854 |
| `UACUCGAUAAUCUUGCCGG` | HCFC1 | -0.03246 |
| `UAAUGUCUCAGCGGGUCCG` | HOXB6 | 0.2846 |
| `UAUGGAAAAUGAGAGCUGC` | CCR5 | 0.2921 |
| `UGAAUUUCUGACUUGAUUC` | LOC728283 | -1.589 |
| `UUCAAGAACACGAUGUUGC` | GAL3ST1 | 0.05701 |
| `UAUGGAAUACCUAACUGCC` | PCDHB5 | 0.4195 |
| `UUGCGCAACAGGUAGUUCG` | GAL3ST3 | 0.586 |
| `UACAGUAAUAUCAUGAAGC` | MED10 | 0.7316 |
| `AUACAUGUUAAUGAGCUCU` | PEX6 | -0.5911 |
| `UAGCGUGCCAGAGAAGGUC` | MIDN | -0.9042 |
| `UCUAGUAACAGCUCUCUGU` | GPLD1 | 0.6514 |
| `UAAACGACUAAGGUGGUAG` | GPR137B | -0.4199 |
| `AACGGGUUCUUUCUUCUGC` | DYNC1I1 | 0.2802 |
| `UCAGGAAACCGUGCUCACC` | EPHX3 | 0.5645 |
| `UCCGCGAUCAUCUUGACCA` | MAB21L2 | 0.03421 |
| `UUCAAAUCAGGGCAACUCA` | AIF1 | -0.5981 |
| `AAAUUAACCCUUCUGGAUC` | WDR82P1 | -0.8759 |
| `UCUGUGCAUUGAGUUUACC` | ELAC1 | 0.007523 |
| `UCAGUGGUAGAAACAGGCC` | KIAA1522 | -0.2624 |
| `UACCUUUAUAAUCUACUUC` | EVI2A | -0.2229 |
| `UGAAUUUCAGGUUUCGUAG` | SUGP2 | -1.751 |
| `UUUCGGAACCUACAUAUAC` | LOC728815 | 0.2138 |
| `UGGAAUAUCAAAAUGGUAC` | LOC654342 | -0.9923 |
| `UUAGUGGUCUCGCUAUCCC` | HCK | -0.03416 |
| `UACUGAAUAGGGAUGCUGG` | SPOCD1 | 0.8351 |
| `UCUGUCUGAAUAUCGAUGG` | CA14 | -1.042 |
| `UCACUUCUCGAAUCCACUG` | ERBB3 | -0.03625 |
| `AAUUUGACCUCUUGCAGCU` | ARHGEF5 | 0.2132 |
| `AUAAGUAUCAUCCCAGUUG` | L3MBTL1 | 0.1468 |
| `UUGAGGUCGAUAAGGAUGU` | PIM1 | -0.2015 |
| `AUAGACAUUAUGACGAUUG` | A2M | 0.4056 |
| `AUCCGGAUUACAAAGUAGC` | NECAP1 | 0.34 |

The last 6 entries again:

strand	gene	seed-corrected z-score
UCACUUCUCGAAUCCACUG	ERBB3	-0.03625
AAUUUGACCUCUUGCAGCU	ARHGEF5	0.2132
AUAAGUAUCAUCCCAGUUG	L3MBTL1	0.1468
UUGAGGUCGAUAAGGAUGU	PIM1	-0.2015
AUAGACAUUAUGACGAUUG	A2M	0.4056
AUCCGGAUUACAAAGUAGC	NECAP1	0.34